Assay results from publication PMC5661634.
Results are given in words; binding and its absence hold for the method and conditions named. In cells and extracts the contact can be indirect. Some binding calls cover weakened binding; strength is not graded here. Tags and fused reporters may be left off the sequences shown.

By UniProt entry, the sequences of proteins in these tests, tags left out.
UniProt Q13596: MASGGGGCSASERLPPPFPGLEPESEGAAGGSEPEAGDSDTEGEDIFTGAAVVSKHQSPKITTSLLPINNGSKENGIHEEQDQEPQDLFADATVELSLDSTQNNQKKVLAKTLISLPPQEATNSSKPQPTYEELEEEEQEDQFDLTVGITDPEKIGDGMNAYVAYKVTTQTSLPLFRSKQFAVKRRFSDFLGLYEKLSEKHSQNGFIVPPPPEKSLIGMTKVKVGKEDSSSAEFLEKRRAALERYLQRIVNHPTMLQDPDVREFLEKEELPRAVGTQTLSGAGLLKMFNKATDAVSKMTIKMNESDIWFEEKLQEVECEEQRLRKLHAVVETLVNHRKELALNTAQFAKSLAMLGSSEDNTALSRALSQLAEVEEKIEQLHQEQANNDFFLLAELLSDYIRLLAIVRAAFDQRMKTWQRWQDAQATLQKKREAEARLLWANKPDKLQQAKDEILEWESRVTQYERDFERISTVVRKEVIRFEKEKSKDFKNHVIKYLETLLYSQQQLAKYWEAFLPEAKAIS

Biological target: T1, Flag-YFP-SNX6 WT (UniProt Q9UNH7)
T1 sequence: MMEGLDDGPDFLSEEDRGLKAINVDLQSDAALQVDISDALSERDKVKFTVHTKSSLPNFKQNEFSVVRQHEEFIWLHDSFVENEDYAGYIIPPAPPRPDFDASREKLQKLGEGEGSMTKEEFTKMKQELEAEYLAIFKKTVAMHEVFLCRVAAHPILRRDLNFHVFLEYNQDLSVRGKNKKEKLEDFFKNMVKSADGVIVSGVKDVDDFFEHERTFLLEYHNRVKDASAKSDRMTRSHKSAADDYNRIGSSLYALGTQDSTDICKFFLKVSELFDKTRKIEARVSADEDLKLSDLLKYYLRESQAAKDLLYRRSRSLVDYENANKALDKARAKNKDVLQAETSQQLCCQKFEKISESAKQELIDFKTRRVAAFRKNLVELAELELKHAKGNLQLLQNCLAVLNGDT
Experiment: co-IP; HEK293T transfected with Flag-YFP-SNX6 constructs; p100 fractions immunopurified with anti-Flag antibody; blotted with anti-SNX1 and anti-Flag

“SNX1 (endogenous) (from UniProt Q13596 1-522)” was tested, and the binding was “binds”.
